Values from PubChem BioAssay AID1224827 (NIAID, 2016)

Aim: 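Identify regulators of the macrophage TNF-alpha response to bacterial LPS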 (follow-up of hits)
Cell system: RAW264.7 G9 mouse macrophage reporter clone
Reagents: single siRNA against mouse genes, 100 nM siRNA
Timing: siRNA for 2 days, then LPS about 16 h
Challenge: bacterial lipopolysaccharide (LPS), 10 ng/ml, cells fixed after overnight (about 16 h) stimulation
Detection: 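Imaged nuclear TNF reporter intensity, background removed, scaled per plate and to non-targeting control wells, as z-scores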
Direction: TNF reporter z-score, mean and TNF reporter z-score: higher = stronger Tnf promoter reporter signal; gene median z, three same-vendor siRNAs: higher = stronger Tnf reporter signal for the gene
Call rule: 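An siRNA is called active when its mean z-score over replicates is at least +2 or at most -2; control wells get no call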
In all, the deposit lists about 3,800 reagents; this is an unselected part. In the full data, about 2,200 (57%) are marked active. 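Active means a strong reporter change in either direction; calls are per siRNA, not per gene; qiagen siRNAs gave weaker effects.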 Unmarked entries are inactive. Reagents against one gene are numbered here.

gene | reagent | TNF reporter z-score, mean | gene median z, three same-vendor siRNAs | TNF reporter z-score, repeat 1 | TNF reporter z-score, repeat 2
Ikzf1 (IKAROS family zinc finger 1) | 1 | -3.69 (active) | -5.18 | -4.12 | -3.27
Ikzf1 (IKAROS family zinc finger 1) | 2 | -5.22 (active) | -5.18 | -5 | -5.44
Ikzf1 (IKAROS family zinc finger 1) | 3 | -5.94 (active) | -5.18 | -5.36 | -6.52
Ikzf1 (IKAROS family zinc finger 1) | 4 | 1.42 | -1.86 | 3.58 | -0.732
Ikzf1 (IKAROS family zinc finger 1) | 5 | -1.86 | -1.86 | -2.51 | -1.21
Ikzf1 (IKAROS family zinc finger 1) | 6 | -3.82 (active) | -1.86 | -4.71 | -2.94
Klra22 (killer cell lectin-like receptor subfamily A, member 22) | 1 | -2.36 (active) | -3.29 | -3.2 | -1.51
Klra22 (killer cell lectin-like receptor subfamily A, member 22) | 2 | -2.47 (active) | -3.29 | -3.38 | -1.57
Klra22 (killer cell lectin-like receptor subfamily A, member 22) | 3 | -3.83 (active) | -3.29 | -3.49 | -4.17
Klra22 (killer cell lectin-like receptor subfamily A, member 22) | 4 | 1.14 | -0.164 | 2.47 | -0.19
Klra22 (killer cell lectin-like receptor subfamily A, member 22) | 5 | -0.232 | -0.164 | -0.137 | -0.327
Klra22 (killer cell lectin-like receptor subfamily A, member 22) | 6 | -0.389 | -0.164 | 0.0934 | -0.872
Gsta3 (glutathione S-transferase, alpha 3) | 1 | -2.96 (active) | -3.13 | -2.53 | -3.4
Gsta3 (glutathione S-transferase, alpha 3) | 2 | -3.06 (active) | -3.13 | -3.62 | -2.5
Gsta3 (glutathione S-transferase, alpha 3) | 3 | -3.51 (active) | -3.13 | -4.15 | -2.87
Gsta3 (glutathione S-transferase, alpha 3) | 4 | 3.24 (active) | 1.11 | 5.84 | 0.629
Gsta3 (glutathione S-transferase, alpha 3) | 5 | 0.328 | 1.11 | 1.6 | -0.939
Gsta3 (glutathione S-transferase, alpha 3) | 6 | 0.368 | 1.11 | 1.99 | -1.25
Or12e9 (olfactory receptor family 12 subfamily E member 9) | 1 | -1.52 | -3.27 | -3.35 | 0.313
Or12e9 (olfactory receptor family 12 subfamily E member 9) | 2 | -3 (active) | -3.27 | -3.19 | -2.82
Or12e9 (olfactory receptor family 12 subfamily E member 9) | 3 | -5.32 (active) | -3.27 | -5.82 | -4.82
Or12e9 (olfactory receptor family 12 subfamily E member 9) | 4 | 1.73 | -0.781 | 2.92 | 0.546
Or12e9 (olfactory receptor family 12 subfamily E member 9) | 5 | -0.781 | -0.781 | 0.397 | -1.96
Or12e9 (olfactory receptor family 12 subfamily E member 9) | 6 | -2.48 (active) | -0.781 | -2.66 | -2.3

Part of the list above in another layout.
Gsta3 (glutathione S-transferase, alpha 3) #5
- TNF reporter z-score, mean: 0.328
- gene median z, three same-vendor siRNAs: 1.11
- TNF reporter z-score, repeat 1: 1.6
- TNF reporter z-score, repeat 2: -0.939

Gsta3 (glutathione S-transferase, alpha 3) #6
- TNF reporter z-score, mean: 0.368
- gene median z, three same-vendor siRNAs: 1.11
- TNF reporter z-score, repeat 1: 1.99
- TNF reporter z-score, repeat 2: -1.25

Or12e9 (olfactory receptor family 12 subfamily E member 9) #1
- TNF reporter z-score, mean: -1.52
- gene median z, three same-vendor siRNAs: -3.27
- TNF reporter z-score, repeat 1: -3.35
- TNF reporter z-score, repeat 2: 0.313

More reagents follow:
gene | reagent | TNF reporter z-score, mean | gene median z, three same-vendor siRNAs | TNF reporter z-score, repeat 1 | TNF reporter z-score, repeat 2
Eif3b (eukaryotic translation initiation factor 3, subunit B) | 1 | -2.08 (active) | -3.89 | -2.15 | -2
Eif3b (eukaryotic translation initiation factor 3, subunit B) | 2 | -3.89 (active) | -3.89 | -4.32 | -3.45
Eif3b (eukaryotic translation initiation factor 3, subunit B) | 3 | -5.15 (active) | -3.89 | -4.45 | -5.86
Eif3b (eukaryotic translation initiation factor 3, subunit B) | 4 | -0.731 | -2.41 | 1.66 | -3.12
Eif3b (eukaryotic translation initiation factor 3, subunit B) | 5 | -1.74 | -2.41 | -0.667 | -2.82
Eif3b (eukaryotic translation initiation factor 3, subunit B) | 6 | -2.9 (active) | -2.41 | -1.99 | -3.82
Add2 (adducin 2) | 1 | -0.251 | -3.06 | -0.551 | 0.0484
Add2 (adducin 2) | 2 | -3.53 (active) | -3.06 | -3.19 | -3.87
Add2 (adducin 2) | 3 | -3.74 (active) | -3.06 | -4.55 | -2.94
Add2 (adducin 2) | 4 | 1.93 | -1.59 | 3.5 | 0.346
Add2 (adducin 2) | 5 | -1.59 | -1.59 | -1.44 | -1.74
Add2 (adducin 2) | 6 | -3.21 (active) | -1.59 | -3.43 | -2.98
Gm15850 (predicted gene 15850) | 1 | 4.28 (active) | -1.49 | 4.61 | 3.94
Gm15850 (predicted gene 15850) | 2 | -1.49 | -1.49 | -1.54 | -1.43
Gm15850 (predicted gene 15850) | 3 | -4.99 (active) | -1.49 | -5.13 | -4.85
Zfp286 (zinc finger protein 286) | 1 | -0.203 | -1.66 | -1.22 | 0.814
Zfp286 (zinc finger protein 286) | 2 | -1.66 | -1.66 | -2.04 | -1.29
Zfp286 (zinc finger protein 286) | 3 | -3.57 (active) | -1.66 | -4.46 | -2.67
Zfp286 (zinc finger protein 286) | 4 | 5.24 (active) | 2.21 | 8.66 | 1.82
Zfp286 (zinc finger protein 286) | 5 | 1.01 | 2.21 | 2.61 | -0.591
Zfp286 (zinc finger protein 286) | 6 | 1.19 | 2.21 | 3.39 | -1.01
Ube2d3 (ubiquitin-conjugating enzyme E2D 3) | 1 | -3.65 (active) | -4.19 | -3.73 | -3.56
Ube2d3 (ubiquitin-conjugating enzyme E2D 3) | 2 | -4.03 (active) | -4.19 | -3.42 | -4.64
Ube2d3 (ubiquitin-conjugating enzyme E2D 3) | 3 | -5.94 (active) | -4.19 | -4.88 | -6.99
Ube2d3 (ubiquitin-conjugating enzyme E2D 3) | 4 | 3.84 (active) | 2.59 | 7.11 | 0.573
Ube2d3 (ubiquitin-conjugating enzyme E2D 3) | 5 | 3.16 (active) | 2.59 | 5.61 | 0.717
Ube2d3 (ubiquitin-conjugating enzyme E2D 3) | 6 | 2.14 (active) | 2.59 | 4.47 | -0.196
Tbx21 (T-box 21) | 1 | 3.73 (active) | 2.48 | 3.49 | 3.97
Tbx21 (T-box 21) | 2 | 2.48 (active) | 2.48 | 2.46 | 2.5
Tbx21 (T-box 21) | 3 | 2 | 2.48 | 2.45 | 1.55
Tbx21 (T-box 21) | 4 | 0.391 | -2.03 | 0.521 | 0.261
Tbx21 (T-box 21) | 5 | -2.03 (active) | -2.03 | -1.66 | -2.41
Tbx21 (T-box 21) | 6 | -3.45 (active) | -2.03 | -3.37 | -3.53
